Assay results published in article PMC3156230.
Results are given in words; binding and its absence hold for the method and conditions named. Binding seen in cells or lysates may run through a third protein. Some entries that bind do so weakly or less than the wild type.

T1: human nephrin (human) (UniProt O60500)
T1 sequence: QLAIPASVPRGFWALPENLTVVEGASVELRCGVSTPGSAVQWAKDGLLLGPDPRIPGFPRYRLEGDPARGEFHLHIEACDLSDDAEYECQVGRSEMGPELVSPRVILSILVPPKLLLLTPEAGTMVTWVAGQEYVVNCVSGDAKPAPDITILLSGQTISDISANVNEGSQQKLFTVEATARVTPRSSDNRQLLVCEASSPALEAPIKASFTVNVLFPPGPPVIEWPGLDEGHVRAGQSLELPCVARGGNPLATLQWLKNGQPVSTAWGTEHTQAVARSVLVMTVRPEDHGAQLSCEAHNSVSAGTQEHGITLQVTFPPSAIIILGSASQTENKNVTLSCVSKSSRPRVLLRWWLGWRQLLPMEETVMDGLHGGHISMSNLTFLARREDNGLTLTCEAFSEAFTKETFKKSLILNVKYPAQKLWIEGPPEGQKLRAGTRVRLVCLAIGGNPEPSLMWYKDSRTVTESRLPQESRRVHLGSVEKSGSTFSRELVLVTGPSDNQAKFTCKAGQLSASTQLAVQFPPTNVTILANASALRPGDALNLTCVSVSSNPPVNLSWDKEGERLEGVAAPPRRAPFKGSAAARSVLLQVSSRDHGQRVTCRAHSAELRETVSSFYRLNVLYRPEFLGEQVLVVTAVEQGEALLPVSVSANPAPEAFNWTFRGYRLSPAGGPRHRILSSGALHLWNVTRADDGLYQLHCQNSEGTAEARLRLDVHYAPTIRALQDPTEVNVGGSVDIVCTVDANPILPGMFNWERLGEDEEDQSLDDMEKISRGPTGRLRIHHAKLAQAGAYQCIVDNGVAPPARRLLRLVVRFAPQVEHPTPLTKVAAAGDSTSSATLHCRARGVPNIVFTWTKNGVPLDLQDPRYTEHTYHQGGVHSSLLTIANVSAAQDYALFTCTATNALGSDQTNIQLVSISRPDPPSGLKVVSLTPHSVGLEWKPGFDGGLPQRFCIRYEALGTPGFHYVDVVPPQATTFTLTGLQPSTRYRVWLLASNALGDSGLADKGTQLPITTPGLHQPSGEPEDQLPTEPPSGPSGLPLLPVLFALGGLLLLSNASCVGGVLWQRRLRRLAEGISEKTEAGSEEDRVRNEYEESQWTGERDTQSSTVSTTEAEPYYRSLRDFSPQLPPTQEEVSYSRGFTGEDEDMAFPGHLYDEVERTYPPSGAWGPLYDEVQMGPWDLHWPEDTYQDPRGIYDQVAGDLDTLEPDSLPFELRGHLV

T2: LASP-1 (UniProt Q14847)
T2 sequence: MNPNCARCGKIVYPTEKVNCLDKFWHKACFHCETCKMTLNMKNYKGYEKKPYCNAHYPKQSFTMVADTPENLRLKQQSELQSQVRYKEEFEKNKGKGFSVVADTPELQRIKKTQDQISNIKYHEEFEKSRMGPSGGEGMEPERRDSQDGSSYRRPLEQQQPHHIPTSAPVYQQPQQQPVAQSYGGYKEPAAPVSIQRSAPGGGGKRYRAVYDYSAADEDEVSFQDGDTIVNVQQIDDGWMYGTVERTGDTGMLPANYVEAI

T3: C. elegans SYG-2 (C. elegans) (UniProt Q9U3P2)
T3 sequence: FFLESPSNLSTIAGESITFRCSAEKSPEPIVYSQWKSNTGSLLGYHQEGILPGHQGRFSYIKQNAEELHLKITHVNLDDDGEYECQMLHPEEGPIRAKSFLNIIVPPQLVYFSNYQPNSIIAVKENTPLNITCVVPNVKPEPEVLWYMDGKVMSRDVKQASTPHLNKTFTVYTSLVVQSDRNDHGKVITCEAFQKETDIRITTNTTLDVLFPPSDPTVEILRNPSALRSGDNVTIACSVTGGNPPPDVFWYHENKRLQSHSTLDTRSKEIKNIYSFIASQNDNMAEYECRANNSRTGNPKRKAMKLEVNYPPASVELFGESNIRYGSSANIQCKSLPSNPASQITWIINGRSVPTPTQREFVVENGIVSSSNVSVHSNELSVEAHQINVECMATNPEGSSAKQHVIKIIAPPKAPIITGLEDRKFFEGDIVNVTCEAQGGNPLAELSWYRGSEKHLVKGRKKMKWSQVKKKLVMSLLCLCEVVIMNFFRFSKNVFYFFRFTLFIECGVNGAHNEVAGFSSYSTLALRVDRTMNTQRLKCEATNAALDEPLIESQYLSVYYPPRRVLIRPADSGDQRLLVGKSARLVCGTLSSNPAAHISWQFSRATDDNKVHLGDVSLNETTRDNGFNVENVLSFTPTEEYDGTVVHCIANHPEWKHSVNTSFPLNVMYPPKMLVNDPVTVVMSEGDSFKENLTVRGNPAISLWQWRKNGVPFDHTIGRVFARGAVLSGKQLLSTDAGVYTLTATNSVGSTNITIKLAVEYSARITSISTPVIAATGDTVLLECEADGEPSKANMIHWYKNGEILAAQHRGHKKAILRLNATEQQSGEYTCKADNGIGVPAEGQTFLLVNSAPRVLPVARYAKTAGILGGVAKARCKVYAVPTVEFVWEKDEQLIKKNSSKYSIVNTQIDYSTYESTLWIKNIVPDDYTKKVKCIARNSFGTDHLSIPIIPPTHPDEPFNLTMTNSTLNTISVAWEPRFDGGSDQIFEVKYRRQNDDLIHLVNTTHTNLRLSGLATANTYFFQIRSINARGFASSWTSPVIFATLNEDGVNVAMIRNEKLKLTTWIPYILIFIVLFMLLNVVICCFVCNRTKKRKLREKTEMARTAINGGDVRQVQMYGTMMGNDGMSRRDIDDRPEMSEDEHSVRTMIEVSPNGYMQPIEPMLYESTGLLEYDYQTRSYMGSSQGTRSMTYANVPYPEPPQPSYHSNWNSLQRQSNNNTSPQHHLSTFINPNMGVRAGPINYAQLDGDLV


How the values were obtained:
Test in all cases: co-IP; V5-tagged and Flag-tagged proteins co-expressed in transiently transfected HEK 293T cells; lysis buffer with 1% Triton X-100; cleared lysate incubated 1-2 h with anti-Flag M2 beads, washed four times; Western blot with anti-V5
human nephrin (human) = target: T1, human nephrin (human)
LASP-1 = target: T2, LASP-1
[1] = target: T3, C. elegans SYG-2 (C. elegans)

| binding (human nephrin (human)) | binding (LASP-1) | binding [1] | Binder |
| --- | --- | --- | --- |
| binds | no binding | – | C. elegans SYG-1 (receptor, UniProt B1Q236 19-730) QQLQQRIVEAPKDTLAAVGETAILTCRVEHQQGPVQWMKDDFGLGTDRDKPLPGNKRYRMVGSAANGEYNLEISNVTLFDDDDFACQISESDHAKAVVSSKAKLTVLVRPTPPKIVKSHHSLKAIAGDPITQSCLSRKGKPPPTIGWAIASDEHGKHIVSWLGESRSKFGGIHAKPEISQETVIAHVNETTQVEEGGNNSREDSSIYSIMSNLSFIPRPEDDHKYLICISQHMTFPNKIEVDSVKLSLRYAPQINLTVASKLPLRENGSALLACNVNAKPLDNVKISWYKGNQKLRETGDTLTFETLKMEDHNRDIFCEATNEIGTTRGSIKLNVAFGARIMSTSQDKEVNEGDNAFFHCATLANPAPAIFWTRGDSDEIIGHGENLTLENVRTWQQGNYNCTATVEGFRKQILSHYLHIRGPPTVSMKDEVSASLDEATEIICEISGRPKTNNVRWTVNGKEINFNNGRITVHQYPKPYGKESILKIKDLKEEDFGVYNCSANNGLGFDNRGTLLKKRNILDWIVITAKFDRMVALAIISAGVLLVSLLCCLCMCRSNCRSRKSKFIDDQSDVTVKCEALDGQYFPEMYSSSPVDNVHLSTKDYISIPQNNPDLDFLGATGSFGPPGGLYPKCFNNSANEYIYNRYEHSYGSFGSGLSTPGGVSDMYGVAMSDKLPVMETLQEVETPKTSNYNFLSSPEVVRPISRTSTHV |
| – | – | binds | C. elegans SYG-2 (receptor, UniProt Q9U3P2 20-1270) FFLESPSNLSTIAGESITFRCSAEKSPEPIVYSQWKSNTGSLLGYHQEGILPGHQGRFSYIKQNAEELHLKITHVNLDDDGEYECQMLHPEEGPIRAKSFLNIIVPPQLVYFSNYQPNSIIAVKENTPLNITCVVPNVKPEPEVLWYMDGKVMSRDVKQASTPHLNKTFTVYTSLVVQSDRNDHGKVITCEAFQKETDIRITTNTTLDVLFPPSDPTVEILRNPSALRSGDNVTIACSVTGGNPPPDVFWYHENKRLQSHSTLDTRSKEIKNIYSFIASQNDNMAEYECRANNSRTGNPKRKAMKLEVNYPPASVELFGESNIRYGSSANIQCKSLPSNPASQITWIINGRSVPTPTQREFVVENGIVSSSNVSVHSNELSVEAHQINVECMATNPEGSSAKQHVIKIIAPPKAPIITGLEDRKFFEGDIVNVTCEAQGGNPLAELSWYRGSEKHLVKGRKKMKWSQVKKKLVMSLLCLCEVVIMNFFRFSKNVFYFFRFTLFIECGVNGAHNEVAGFSSYSTLALRVDRTMNTQRLKCEATNAALDEPLIESQYLSVYYPPRRVLIRPADSGDQRLLVGKSARLVCGTLSSNPAAHISWQFSRATDDNKVHLGDVSLNETTRDNGFNVENVLSFTPTEEYDGTVVHCIANHPEWKHSVNTSFPLNVMYPPKMLVNDPVTVVMSEGDSFKENLTVRGNPAISLWQWRKNGVPFDHTIGRVFARGAVLSGKQLLSTDAGVYTLTATNSVGSTNITIKLAVEYSARITSISTPVIAATGDTVLLECEADGEPSKANMIHWYKNGEILAAQHRGHKKAILRLNATEQQSGEYTCKADNGIGVPAEGQTFLLVNSAPRVLPVARYAKTAGILGGVAKARCKVYAVPTVEFVWEKDEQLIKKNSSKYSIVNTQIDYSTYESTLWIKNIVPDDYTKKVKCIARNSFGTDHLSIPIIPPTHPDEPFNLTMTNSTLNTISVAWEPRFDGGSDQIFEVKYRRQNDDLIHLVNTTHTNLRLSGLATANTYFFQIRSINARGFASSWTSPVIFATLNEDGVNVAMIRNEKLKLTTWIPYILIFIVLFMLLNVVICCFVCNRTKKRKLREKTEMARTAINGGDVRQVQMYGTMMGNDGMSRRDIDDRPEMSEDEHSVRTMIEVSPNGYMQPIEPMLYESTGLLEYDYQTRSYMGSSQGTRSMTYANVPYPEPPQPSYHSNWNSLQRQSNNNTSPQHHLSTFINPNMGVRAGPINYAQLDGDLV |
